Test results taken from publication doi:10.1101/2025.01.24.634708.
These are yes or no findings as the source states them, for the method shown. Binding seen in cells or lysates may run through a third protein. Some results given as binding are weak or reduced against the parent protein; the word gives no strength. For some of these results: Where a sequence is shown, tags or fusion partners need not be part of it.

The chains behind the UniProt entries cited, without tags or fusion partners.
UniProt Q13395: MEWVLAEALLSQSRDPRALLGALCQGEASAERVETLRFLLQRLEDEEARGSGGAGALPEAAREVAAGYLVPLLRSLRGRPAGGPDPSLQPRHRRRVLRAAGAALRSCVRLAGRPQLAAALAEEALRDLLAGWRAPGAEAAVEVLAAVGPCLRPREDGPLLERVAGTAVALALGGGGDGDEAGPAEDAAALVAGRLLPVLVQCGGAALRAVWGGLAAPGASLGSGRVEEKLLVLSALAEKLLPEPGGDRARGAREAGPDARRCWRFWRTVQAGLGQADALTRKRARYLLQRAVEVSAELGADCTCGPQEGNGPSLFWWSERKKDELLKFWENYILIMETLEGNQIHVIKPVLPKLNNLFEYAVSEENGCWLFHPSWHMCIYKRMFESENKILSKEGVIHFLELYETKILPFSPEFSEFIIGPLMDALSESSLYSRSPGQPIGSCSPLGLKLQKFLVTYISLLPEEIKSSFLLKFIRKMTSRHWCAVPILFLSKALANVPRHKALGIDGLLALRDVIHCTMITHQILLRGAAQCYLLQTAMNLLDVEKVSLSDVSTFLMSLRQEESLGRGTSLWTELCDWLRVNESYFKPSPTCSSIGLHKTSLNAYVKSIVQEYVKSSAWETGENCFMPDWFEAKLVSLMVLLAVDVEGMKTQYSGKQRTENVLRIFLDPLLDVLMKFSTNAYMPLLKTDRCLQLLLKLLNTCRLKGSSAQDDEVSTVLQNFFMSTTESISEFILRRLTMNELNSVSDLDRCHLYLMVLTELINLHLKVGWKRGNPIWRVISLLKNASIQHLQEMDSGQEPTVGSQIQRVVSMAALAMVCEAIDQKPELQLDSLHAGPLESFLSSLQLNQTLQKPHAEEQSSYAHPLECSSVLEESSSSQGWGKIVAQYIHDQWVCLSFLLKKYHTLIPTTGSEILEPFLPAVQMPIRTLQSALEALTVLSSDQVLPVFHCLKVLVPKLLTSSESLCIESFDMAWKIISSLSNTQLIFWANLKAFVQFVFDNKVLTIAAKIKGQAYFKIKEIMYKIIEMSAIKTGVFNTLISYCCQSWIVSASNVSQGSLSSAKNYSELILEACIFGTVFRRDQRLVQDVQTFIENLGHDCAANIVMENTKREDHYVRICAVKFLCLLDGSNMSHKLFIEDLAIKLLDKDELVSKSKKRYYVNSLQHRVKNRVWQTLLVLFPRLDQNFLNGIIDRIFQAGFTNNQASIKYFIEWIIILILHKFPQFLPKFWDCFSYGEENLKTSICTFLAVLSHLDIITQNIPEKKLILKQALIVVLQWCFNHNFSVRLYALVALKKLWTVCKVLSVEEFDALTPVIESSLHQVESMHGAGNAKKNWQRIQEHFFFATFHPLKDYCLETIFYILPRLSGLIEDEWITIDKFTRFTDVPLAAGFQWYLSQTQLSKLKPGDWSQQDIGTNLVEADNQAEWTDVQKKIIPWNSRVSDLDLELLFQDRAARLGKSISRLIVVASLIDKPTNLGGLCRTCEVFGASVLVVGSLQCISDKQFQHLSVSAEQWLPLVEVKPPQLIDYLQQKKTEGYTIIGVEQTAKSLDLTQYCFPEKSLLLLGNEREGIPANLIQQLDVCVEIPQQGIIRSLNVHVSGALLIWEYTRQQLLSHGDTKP

T1: ZBTB2 with a C-terminal FLAG and HA tag (human (cDNA from Jurkat cells)) (UniProt Q8N680)
T1 sequence: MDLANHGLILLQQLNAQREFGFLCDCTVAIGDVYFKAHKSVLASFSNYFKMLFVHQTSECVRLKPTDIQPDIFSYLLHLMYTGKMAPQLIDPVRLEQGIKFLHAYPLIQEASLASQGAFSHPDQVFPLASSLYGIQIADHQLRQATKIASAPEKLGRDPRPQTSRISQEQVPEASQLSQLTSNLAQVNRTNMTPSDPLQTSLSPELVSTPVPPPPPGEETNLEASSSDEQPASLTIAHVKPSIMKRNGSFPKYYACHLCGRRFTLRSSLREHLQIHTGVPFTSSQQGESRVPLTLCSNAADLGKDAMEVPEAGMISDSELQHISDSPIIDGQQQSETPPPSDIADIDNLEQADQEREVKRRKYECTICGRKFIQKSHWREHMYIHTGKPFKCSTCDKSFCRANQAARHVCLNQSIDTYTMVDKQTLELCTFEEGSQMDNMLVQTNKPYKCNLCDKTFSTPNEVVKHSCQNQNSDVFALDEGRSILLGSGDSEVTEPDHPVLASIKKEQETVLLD

T2: ZNF639 with a C-terminal FLAG and HA tag (human (cDNA from Jurkat cells)) (UniProt Q9UID6)
T2 sequence: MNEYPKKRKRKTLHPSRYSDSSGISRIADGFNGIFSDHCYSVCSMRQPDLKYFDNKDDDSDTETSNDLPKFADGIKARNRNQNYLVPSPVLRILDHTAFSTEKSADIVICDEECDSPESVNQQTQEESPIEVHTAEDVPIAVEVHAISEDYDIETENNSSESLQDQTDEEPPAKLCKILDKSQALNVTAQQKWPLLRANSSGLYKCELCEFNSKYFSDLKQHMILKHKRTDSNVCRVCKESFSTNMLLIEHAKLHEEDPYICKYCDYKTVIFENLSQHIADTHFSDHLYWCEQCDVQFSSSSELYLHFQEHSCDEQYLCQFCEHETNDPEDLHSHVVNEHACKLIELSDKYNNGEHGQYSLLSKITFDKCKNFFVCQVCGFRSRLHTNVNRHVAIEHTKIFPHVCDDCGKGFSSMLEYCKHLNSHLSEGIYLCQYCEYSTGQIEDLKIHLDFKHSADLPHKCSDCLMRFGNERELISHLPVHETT

T3: ZBTB25 with a C-terminal FLAG and HA tag (human (cDNA from Jurkat cells)) (UniProt P24278)
T3 sequence: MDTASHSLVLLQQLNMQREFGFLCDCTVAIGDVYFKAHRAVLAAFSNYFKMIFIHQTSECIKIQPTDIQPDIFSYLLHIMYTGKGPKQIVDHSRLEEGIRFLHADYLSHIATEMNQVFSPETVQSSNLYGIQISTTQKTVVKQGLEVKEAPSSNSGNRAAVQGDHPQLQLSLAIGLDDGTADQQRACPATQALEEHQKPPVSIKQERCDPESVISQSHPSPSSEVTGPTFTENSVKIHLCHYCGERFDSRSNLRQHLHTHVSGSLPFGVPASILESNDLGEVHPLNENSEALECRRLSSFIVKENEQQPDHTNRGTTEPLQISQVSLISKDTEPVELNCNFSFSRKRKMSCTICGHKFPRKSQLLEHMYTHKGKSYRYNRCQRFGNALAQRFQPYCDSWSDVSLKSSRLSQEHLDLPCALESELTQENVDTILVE


Key:
Assay in all cases: co-IP
[1] = target: TAR (HIV-1) RNA binding protein 1 (TARBP1) with a C-terminal FLAG and HA tag (human) (UniProt Q13395)
[2] = target: T1, ZBTB2 with a C-terminal FLAG and HA tag (human (cDNA from Jurkat cells))
[3] = target: T2, ZNF639 with a C-terminal FLAG and HA tag (human (cDNA from Jurkat cells))
[4] = target: T3, ZBTB25 with a C-terminal FLAG and HA tag (human (cDNA from Jurkat cells))

| Binder | binding [1] | binding [2] | binding [3] | binding [4] |
| --- | --- | --- | --- | --- |
| ZBTB25 (protein, UniProt P24278 1-435) MDTASHSLVLLQQLNMQREFGFLCDCTVAIGDVYFKAHRAVLAAFSNYFKMIFIHQTSECIKIQPTDIQPDIFSYLLHIMYTGKGPKQIVDHSRLEEGIRFLHADYLSHIATEMNQVFSPETVQSSNLYGIQISTTQKTVVKQGLEVKEAPSSNSGNRAAVQGDHPQLQLSLAIGLDDGTADQQRACPATQALEEHQKPPVSIKQERCDPESVISQSHPSPSSEVTGPTFTENSVKIHLCHYCGERFDSRSNLRQHLHTHVSGSLPFGVPASILESNDLGEVHPLNENSEALECRRLSSFIVKENEQQPDHTNRGTTEPLQISQVSLISKDTEPVELNCNFSFSRKRKMSCTICGHKFPRKSQLLEHMYTHKGKSYRYNRCQRFGNALAQRFQPYCDSWSDVSLKSSRLSQEHLDLPCALESELTQENVDTILVE | binds | binds | binds |  |
| ZBTB2 (protein, UniProt Q8N680 1-514) MDLANHGLILLQQLNAQREFGFLCDCTVAIGDVYFKAHKSVLASFSNYFKMLFVHQTSECVRLKPTDIQPDIFSYLLHLMYTGKMAPQLIDPVRLEQGIKFLHAYPLIQEASLASQGAFSHPDQVFPLASSLYGIQIADHQLRQATKIASAPEKLGRDPRPQTSRISQEQVPEASQLSQLTSNLAQVNRTNMTPSDPLQTSLSPELVSTPVPPPPPGEETNLEASSSDEQPASLTIAHVKPSIMKRNGSFPKYYACHLCGRRFTLRSSLREHLQIHTGVPFTSSQQGESRVPLTLCSNAADLGKDAMEVPEAGMISDSELQHISDSPIIDGQQQSETPPPSDIADIDNLEQADQEREVKRRKYECTICGRKFIQKSHWREHMYIHTGKPFKCSTCDKSFCRANQAARHVCLNQSIDTYTMVDKQTLELCTFEEGSQMDNMLVQTNKPYKCNLCDKTFSTPNEVVKHSCQNQNSDVFALDEGRSILLGSGDSEVTEPDHPVLASIKKEQETVLLD | binds |  |  | binds |
| ZNF639 (protein, UniProt Q9UID6 1-485) MNEYPKKRKRKTLHPSRYSDSSGISRIADGFNGIFSDHCYSVCSMRQPDLKYFDNKDDDSDTETSNDLPKFADGIKARNRNQNYLVPSPVLRILDHTAFSTEKSADIVICDEECDSPESVNQQTQEESPIEVHTAEDVPIAVEVHAISEDYDIETENNSSESLQDQTDEEPPAKLCKILDKSQALNVTAQQKWPLLRANSSGLYKCELCEFNSKYFSDLKQHMILKHKRTDSNVCRVCKESFSTNMLLIEHAKLHEEDPYICKYCDYKTVIFENLSQHIADTHFSDHLYWCEQCDVQFSSSSELYLHFQEHSCDEQYLCQFCEHETNDPEDLHSHVVNEHACKLIELSDKYNNGEHGQYSLLSKITFDKCKNFFVCQVCGFRSRLHTNVNRHVAIEHTKIFPHVCDDCGKGFSSMLEYCKHLNSHLSEGIYLCQYCEYSTGQIEDLKIHLDFKHSADLPHKCSDCLMRFGNERELISHLPVHETT | binds |  |  | binds |
